Our source for the z-score values is PubChem BioAssay AID1347423 (Functional Genomics Laboratory (NCATS/FGL), 2020).

About 210 (0.4%) of roughly 52,000 sequences were called active.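 Rule for the calls: active = gene whose silencing raises cell survival under the drug, median off-target-corrected z-score across its silencing RNAs 2 or more; inactive = the rest.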 This is one part of the list.

This assay is described as follows: Resistance to Poly (ADP-Ribose) Polymerase inhibitor: Gene Identification via Genome-wide siRNA Screen. The following applies: mouse BRCA2 R2336H ES cells, olaparib, CellTiter-Glo viability; hits give high values. The gist of the method:
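Genome-wide siRNA screen (3 siRNAs/gene, 20 nM) in mouse ES cells carrying hypomorphic BRCA2 R2336H; olaparib 500 nM added 48 h post-transfection, CellTiter-Glo viability 72 h later. Normalized to plate-median negative control; MAD z-scores, gene median, seed-adjusted.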
A general note: In ATP-based viability assays light output follows the ATP content of the culture.
Regarding “GGAUGUGGUUCUUGAACAUTT against 3110023E09Rik”, the z-score is inactive: -0.289.

Consider CGUAUACAAAUGUCCGGUATT against Itga11, for which the z-score was inactive: -0.122.

Regarding GGUAUUUUUACAUUCCCUUTT against Slc39a11, the z-score was inactive: -0.968.

On to GGGAGAGCGUAAGAUCUUUTT against Tln1, for which the z-score is inactive: -0.476.

GGCUUGGUUUUAAAUGAUGTT against Il17rd: the z-score is inactive: -1.92.

With GGAAGCGUAAAUAAGUGUCTT against Emp2, the z-score was inactive: 0.844.

As for CCAUACGAGUGACCAGUUGTT against Ctbp1, the z-score is inactive: -0.567.

With “GGAGUCCUUGGGAUAAUAATT against D930016N04Rik”, the z-score was inactive: -1.02.

For the sequence GGGAAGUGACAUAUUCUCGTT against Brf2, the z-score was inactive: -0.676.

Turning to CCCAUUUCCGGAGCUCACUTT against Grb10, the z-score was inactive: 1.29.

As to GGGAUUACCACCCAUCCUATT against Atp5b, the z-score was inactive: 2.37.

On to CGGCUGAAGACUGAAAACGTT against Hnrpl, for which the z-score is inactive: 2.53.

In the case of GCAGAUAUGACGAUUAAAUTT against Pafah1b1, the z-score is inactive: -0.63.

Take “CCAGAUACUUCUCAUGGCGTT against B230317C12Rik”: the z-score was inactive: -0.357.

In the case of CCUUCAGACCUCCUUAUUATT against Hgd, the z-score is inactive: -1.3.

For GGUUACGUGUUUGUAUCUATT against Hig1, the z-score is inactive: 0.593.

In the case of GGUUCUAGGGAAAAAAACATT against Tnrc4, the z-score was inactive: 0.887.

Consider GGUCUUGAAACUCUGAAAGTT against Sult1a1, for which the z-score is inactive: 1.58.

As for GGGCUAUCGGUUGACAAAUTT against Riok2, the z-score was inactive: -0.301.

For the sequence GGUUCUCCAUUCUGUUUACTT against Slc35d1, the z-score was inactive: 0.505.

As to GGCCUCCAGUGGAUAAUAGTT against BC013667, the z-score was inactive: -1.07.

As to GGAACAUUUUGGAAAUGACTT against Fbxo25, the z-score was inactive: 0.308.

Regarding GGAGAGGAAAAUUGUAUUUTT against Alox12, the z-score is inactive: 0.518.

With “GGCUAAGGGUGGGAAAGAATT against 1700007H16Rik”, the z-score is inactive: -1.69.

Consider GGAGGAGAUCAAAAAAAGATT against Cfl2, for which the z-score is inactive: -0.709.

With GCAGAUUAACAUCUUCUUUTT against Dncic2, the z-score was inactive: -0.823.

As for “GGUAGUAUCCCAGUUCCAUTT against 2810432L12Rik”, the z-score was inactive: -0.445.

As to GGAUAUUUGUCUUCUGGGUTT against AY026312, the z-score was inactive: 1.01.

For GGCUUGUCCUGGCAUGAUGTT against Ptprn, the z-score was inactive: -1.15.

With GGAGAAAAUGGACAGUCUATT against Twist1, the z-score was inactive: -0.576.

On to GGAUCUUGUUGGUUAUCGATT against Syn3, for which the z-score is inactive: 0.359.

In the case of CGGCUUAAAUUGACAUUUCTT against Glul, the z-score is inactive: -0.549.

Take “GCCUCUACUGGUUAUUUAATT against 4930477M19”: the z-score was inactive: 0.571.

For “GCAUGAAGGACUUUCGAAGTT against 5730437N04Rik”, the z-score is inactive: -0.439.

As to GGAACAAGGAAGUUACAGGTT against Olfr30, the z-score is inactive: 0.637.

As for GGCAAAAAUACUUUGUCGGTT against Alox5ap, the z-score is inactive: 0.576.

In the case of GGACAUGAAAGUUGACCUGTT against Mrps31, the z-score was inactive: 0.0913.

CGUGAGGUUAUGAUGUAUUTT against LOC432723: the z-score is inactive: -0.681.

In the case of GGAUAUUAUUGUUCCCACUTT against Olfr907, the z-score is inactive: 0.259.

Consider GCCCAGAUACAACCAGACUTT against AW046014, for which the z-score is inactive: -0.783.

Take GCUAAGGACUUUUGUUGACTT against G3bp: the z-score is inactive: -0.398.

As to “CCAACAAUCAUGGUUAAACTT against 4732429D16Rik”, the z-score is inactive: 0.926.

In the case of GGUGGAAUGAAAGAACAAGTT against Klhl13, the z-score is inactive: -1.39.

Turning to GGCUGAAGACACUGAACACTT against Olfr643, the z-score was inactive: -3.35.

For GGAUGGAGACACCAAUUUUTT against Rdh9, the z-score is inactive: 0.487.

As to GGCUUGACUGCUAUUUUAGTT against Csna, the z-score is inactive: 2.01.

On to UGAACAAACUUUCAGCCUCTT against Ugt2b5, for which the z-score was inactive: -1.6.

For GGAGAAUUUGGAAAGUGAGTT against Rnf150, the z-score was inactive: -1.33.

“GGAAUGGAUCCUGAUGAUATT against 5730406I15Rik”: the z-score is inactive: -1.6.

In the case of GCACUCAAUAUAGCUUUAATT against Olfr1489, the z-score is inactive: -1.77.

Turning to GCGAUUUGUCAAAGAGCUGTT against Pcyox1, the z-score was inactive: -0.447.

On to GGAGCAACUGUUUUAAAAGTT against Leprel1, for which the z-score was inactive: 0.118.

Take GGUACUACAAAAGAGAGCUTT against Ubr1: the z-score is inactive: 0.157.

Take “GCUUAAACCGCCUAUGUUCTT against 1810004F21Rik”: the z-score is inactive: 0.928.

Take “GGAUCAUCUGCAUAAUAGATT against 4930517K11Rik”: the z-score was inactive: -0.0227.

For GGAUUUAACCCUGAGAUACTT against Grpel2, the z-score was inactive: 0.0521.

With GGGUGAUGAUGGAUUCUGUTT against Eef1g, the z-score was inactive: 1.49.

On to GGAAAUUUGGAAAUUGCCUTT against Hnt, for which the z-score is inactive: 0.652.

On to GGUUUUUUUGAGUUUCAGGTT against Lars, for which the z-score was inactive: 0.544.

With GGAACAGCAGCCUGAAUGATT against B4galt5, the z-score is inactive: 0.809.

For the sequence GGAAGAACUAAAGAGUCUUTT against Elavl2, the z-score is inactive: -0.556.

Turning to “CCCUGACCUUGUGGUAGAATT against 0610012D14Rik”, the z-score is inactive: -1.13.

For the sequence GGUGACAACCAUGAUCUCCTT against C1qtnf2, the z-score is inactive: 0.721.

With “GGUUUGAAAUCAGCAUGAUTT against A530065I17Rik”, the z-score was inactive: -0.647.

On to GGAUCAUAUAUGAAGCACATT against Mybl1, for which the z-score was inactive: 1.02.

On to “GGACAUUAGCCAACACAUCTT against 1700010M22Rik”, for which the z-score was inactive: 0.249.
